Results are given in words; binding and its absence hold for the method and conditions named. Binding seen in cells or lysates may run through a third protein. A result given as binding can be weak or reduced; the word gives no strength. Sequences can lack the tags named with a protein.
Molecular target: human truncated adenylyl cyclase 3, FLAG-tagged (hAC3-AT-FLAG) (human)
Assay: co-IP; HEK293T cells transiently transfected with hAC3-HA and hAC3-AT-FLAG (or mCherry as control); lysis in 20 mM TRIS/HCl pH 8, 137 mM NaCl, 2 mM EDTA, 1% NP-40; anti-FLAG-M2 magnetic beads overnight at 4 °C; glycine pH 3.0 elution; western blot with HA antibody

binding: binds
B1: human adenylyl cyclase 3, HA-tagged (hAC3-HA) (enzyme, UniProt O60266 1-1144)
chain: MPRNQGFSEPEYSAEYSAEYSVSLPSDPDRGVGRTHEISVRNSGSCLCLPRFMRLTFVPESLENLYQTYFKRQRHETLLVLVVFAALFDCYVVVMCAVVFSSDKLASLAVAGIGLVLDIILFVLCKKGLLPDRVTRRVLPYVLWLLITAQIFSYLGLNFARAHAASDTVGWQVFFVFSFFITLPLSLSPIVIISVVSCVVHTLVLGVTVAQQQQEELKGMQLLREILANVFLYLCAIAVGIMSYYMADRKHRKAFLEARQSLEVKMNLEEQSQQQENLMLSILPKHVADEMLKDMKKDESQKDQQQFNTMYMYRHENVSILFADIVGFTQLSSACSAQELVKLLNELFARFDKLAAKYHQLRIKILGDCYYCICGLPDYREDHAVCSILMGLAMVEAISYVREKTKTGVDMRVGVHTGTVLGGVLGQKRWQYDVWSTDVTVANKMEAGGIPGRVHISQSTMDCLKGEFDVEPGDGGSRCDYLEEKGIETYLIIASKPEVKKTATQNGLNGSALPNGAPASSKSSSPALIETKEPNGSAHSSGSTSEKPEEQDAQADNPSFPNPRRRLRLQDLADRVVDASEDEHELNQLLNEALLERESAQVVKKRNTFLLSMRFMDPEMETRYSVEKEKQSGAAFSCSCVVLLCTALVEILIDPWLMTNYVTFMVGEILLLILTICSLAAIFPRAFPKKLVAFSTWIDRTRWARNTWAMLAIFILVMANVVDMLSCLQYYTGPSNATAGMETEGSCLENPKYYNYVAVLSLIATIMLVQVSHMVKLTLMLLVAGAVATINLYAWRPVFDEYDHKRFREHDLPMVALEQMQGFNPGLNGTDRLPLVPSKYSMTVMVFLMMLSFYYFSRHVEKLARTLFLWKIEVHDQKERVYEMRRWNEALVTNMLPEHVARHFLGSKKRDEELYSQTYDEIGVMFASLPNFADFYTEESINNGGIECLRFLNEIISDFDSLLDNPKFRVITKIKTIGSTYMAASGVTPDVNTNGFASSNKEDKSERERWQHLADLADFALAMKDTLTNINNQSFNNFMLRIGMNKGGVLAGVIGARKPHYDIWGNTVNVASRMESTGVMGNIQVVEETQVILREYGFRFVRRGPIFVKGKGELLTFFLKGRDKLATFPNGPSVTLPHQVVDNS

Source: article PMC11971047
